{"source": "patent US20100311749A1", "about": "“4-BENZOYL-1-SUBSTITUTED-PIPERAZIN-2-ONE DERIVATIVES AS P2X7 MODULATORS” (priority 2007, published 2010)", "note": "Some entries share one result that the patent states for a list of compounds.", "data": [{"molecular_target": "T1, human P2X7 receptor (Homo sapiens, UniProt Q99572)", "T1 construct": "expressed in transfected cells", "T1 sequence (Q99572 1-595)": "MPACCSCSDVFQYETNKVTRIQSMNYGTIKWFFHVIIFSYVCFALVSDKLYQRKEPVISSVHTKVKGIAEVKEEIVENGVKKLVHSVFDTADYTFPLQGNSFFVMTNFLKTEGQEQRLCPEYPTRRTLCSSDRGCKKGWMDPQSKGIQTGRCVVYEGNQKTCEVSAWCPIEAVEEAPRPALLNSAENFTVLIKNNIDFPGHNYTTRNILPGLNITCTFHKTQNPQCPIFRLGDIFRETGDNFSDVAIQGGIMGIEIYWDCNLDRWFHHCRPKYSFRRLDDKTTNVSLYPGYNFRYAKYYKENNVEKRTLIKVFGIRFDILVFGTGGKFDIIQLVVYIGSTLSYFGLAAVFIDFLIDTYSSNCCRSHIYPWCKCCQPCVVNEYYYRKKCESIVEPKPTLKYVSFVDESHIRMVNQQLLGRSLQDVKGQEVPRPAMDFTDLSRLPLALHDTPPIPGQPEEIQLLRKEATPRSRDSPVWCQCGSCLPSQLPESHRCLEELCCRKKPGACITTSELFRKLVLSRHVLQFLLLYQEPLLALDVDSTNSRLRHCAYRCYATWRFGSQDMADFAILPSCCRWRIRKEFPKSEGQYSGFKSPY", "experiment": "Fluorescent Imaging Plate Reader (FLIPR) Ca Assay", "type": "cell-based", "details": "HEK293 or U-2OS cells expressing human recombinant P2X7 receptors; BzATP close to EC80; values given as 'about'", "values": [{"molecule": "O=C(c1ccc(F)cc1Cl)N1CCN(c2ccc(F)cc2Cl)C(=O)C1", "note": "[Example 40, 1-(2-chloro-4-fluorophenyl)-4-[(2-chloro-4-fluorophenyl)carbonyl]-2-piperazinone]", "pIC50 for human P2X7 receptor antagonist activity (blocking BzATP responses) in the FLIPR Ca Assay": "≥ 5.0"}, {"molecule": "O=C1CN(C(=O)c2cccc(C(F)(F)F)c2Cl)CCN1CC1CC1", "note": "[Example 48, 4-{[2-chloro-3-(trifluoromethyl)phenyl]carbonyl}-1-(cyclopropylmethyl)-2-piperazinone]", "pIC50 for human P2X7 receptor antagonist activity (blocking BzATP responses) in the FLIPR Ca Assay": "≥ 5.0"}, {"molecule": "CCC(CC)N1CCN(C(=O)c2cccc(C(F)(F)F)c2Cl)CC1=O", "note": "[Example 47, 4-{[2-chloro-3-(trifluoromethyl)phenyl]carbonyl}-1-(1-ethylpropyl)-2-piperazinone]", "pIC50 for human P2X7 receptor antagonist activity (blocking BzATP responses) in the FLIPR Ca Assay": "≥ 5.0"}, {"molecule": "CC(C)CN1CCN(C(=O)c2cccc(C(F)(F)F)c2Cl)CC1=O", "note": "[Example 44, 4-{[2-chloro-3-(trifluoromethyl)phenyl]carbonyl}-1-(2-methylpropyl)-2-piperazinone]", "pIC50 for human P2X7 receptor antagonist activity (blocking BzATP responses) in the FLIPR Ca Assay": "≥ 5.0"}, {"molecule": "Cc1ccc(N2CCOCC2)cc1N1CCN(C(=O)c2cccc(C(F)(F)F)c2Cl)CC1=O", "note": "[Example 55, 4-{[2-chloro-3-(trifluoromethyl)phenyl]carbonyl}-1-[2-methyl-5-(4-morpholinyl)phenyl]-2-piperazinone]", "pIC50 for human P2X7 receptor antagonist activity (blocking BzATP responses) in the FLIPR Ca Assay": "≥ 5.0"}, {"molecule": "Cc1c(Br)cccc1N1CCN(C(=O)c2cccc(C(F)(F)F)c2Cl)CC1=O", "note": "[Example 46, 1-(3-bromo-2-methylphenyl)-4-{[2-chloro-3-(trifluoromethyl)phenyl]carbonyl}-2-piperazinone]", "pIC50 for human P2X7 receptor antagonist activity (blocking BzATP responses) in the FLIPR Ca Assay": "≥ 5.0"}, {"molecule": "O=C(c1cccc(C(F)(F)F)c1Cl)N1CCN(c2ccccc2Cl)C(=O)C1", "note": "[Example 9, 1-(2-Chlorophenyl)-4-{[2-chloro-3-(trifluoromethyl)phenyl]carbonyl}-2-piperazinone]", "pIC50 for human P2X7 receptor antagonist activity (blocking BzATP responses) in the FLIPR Ca Assay": "≥ 5.5"}, {"molecule": "O=C(c1cccc(Cl)c1Cl)N1CCN(c2ccc(Cl)cc2)C(=O)C1", "note": "[Example 7, 1-(4-Chlorophenyl)-4-[(2,3-dichlorophenyl)carbonyl]-2-piperazinone]", "pIC50 for human P2X7 receptor antagonist activity (blocking BzATP responses) in the FLIPR Ca Assay": "≥ 5.5"}, {"molecule": "Cc1ccc(N2CCCC2)cc1N1CCN(C(=O)c2cccc(C(F)(F)F)c2Cl)CC1=O", "note": "[Example 73, 4-{[2-chloro-3-(trifluoromethyl)phenyl]carbonyl}-1-[2-methyl-5-(1-pyrrolidinyl)phenyl]-2-piperazinone]", "pIC50 for human P2X7 receptor antagonist activity (blocking BzATP responses) in the FLIPR Ca Assay": "≥ 5.0"}, {"molecule": "O=C(c1ccc(F)cc1Cl)N1CCN(c2cccc3ccccc23)C(=O)C1", "note": "[Example 23, 4-[(2-chloro-4-fluorophenyl)carbonyl]-1-(1-naphthalenyl)-2-piperazinone]", "pIC50 for human P2X7 receptor antagonist activity (blocking BzATP responses) in the FLIPR Ca Assay": "≥ 5.0"}, {"molecule": "O=C(c1cccc(Cl)c1Cl)N1CCN(c2cccc(Cl)c2)C(=O)C1", "note": "[Example 14, 1-(3-Chlorophenyl)-4-[(2,3-dichlorophenyl)carbonyl]-2-piperazinone]", "pIC50 for human P2X7 receptor antagonist activity (blocking BzATP responses) in the FLIPR Ca Assay": "≥ 5.5"}, {"molecule": "Cc1ccc(Br)cc1N1CCN(C(=O)c2cccc(C(F)(F)F)c2Cl)CC1=O", "note": "[Example 53, 1-(5-bromo-2-methylphenyl)-4-{[2-chloro-3-(trifluoromethyl)phenyl]carbonyl}-2-piperazinone]", "pIC50 for human P2X7 receptor antagonist activity (blocking BzATP responses) in the FLIPR Ca Assay": "≥ 5.0"}, {"molecule": "O=C(c1cccc(C(F)(F)F)c1Cl)N1CCN(c2cccc(N3CCOCC3)c2Cl)C(=O)C1", "note": "[Example 79, 1-[2-chloro-3-(4-morpholinyl)phenyl]-4-{[2-chloro-3-(trifluoromethyl)phenyl]carbonyl}-2-piperazinone]", "pIC50 for human P2X7 receptor antagonist activity (blocking BzATP responses) in the FLIPR Ca Assay": "≥ 5.0"}, {"molecule": "O=C(c1cccc(Cl)c1Cl)N1CCN(c2ccccc2Cl)C(=O)C1", "note": "[Example 6, 1-(2-Dichlorophenyl)-4-[(2,3-dichlorophenyl)carbonyl]-2-piperazinone]", "pIC50 for human P2X7 receptor antagonist activity (blocking BzATP responses) in the FLIPR Ca Assay": "≥ 5.5"}, {"molecule": "CC(C)N1CCN(C(=O)c2cccc(Cl)c2Cl)CC1=O", "note": "[Example 18, 4-[(2,3-Dichlorophenyl)carbonyl]-1-(1-methylethyl)-2-piperazinone]", "pIC50 for human P2X7 receptor antagonist activity (blocking BzATP responses) in the FLIPR Ca Assay": "≥ 5.5"}, {"molecule": "Cc1c(N2CCOCC2)cccc1N1CCN(C(=O)c2c(Cl)cc(Cl)cc2Cl)CC1=O", "note": "[Example 82, 1-[2-methyl-3-(4-morpholinyl)phenyl]-4-[(2,4,6-trichlorophenyl)carbonyl]-2-piperazinone]", "pIC50 for human P2X7 receptor antagonist activity (blocking BzATP responses) in the FLIPR Ca Assay": "≥ 5.0"}, {"molecule": "O=C1CN(C(=O)c2cccc(C(F)(F)F)c2Cl)CCN1Cc1ccccn1", "note": "[Example 69, 4-{[2-chloro-3-(trifluoromethyl)phenyl]carbonyl}-1-(2-pyridinylmethyl)-2-piperazinone]", "pIC50 for human P2X7 receptor antagonist activity (blocking BzATP responses) in the FLIPR Ca Assay": "≥ 5.0"}, {"molecule": "O=C(c1cccc(C(F)(F)F)c1Cl)N1CCN(c2cccc3ccccc23)C(=O)C1", "note": "[Example 24, 4-{[2-chloro-3-(trifluoromethyl)phenyl]carbonyl}-1-(1-naphthalenyl)-2-piperazinone]", "pIC50 for human P2X7 receptor antagonist activity (blocking BzATP responses) in the FLIPR Ca Assay": "≥ 5.0"}, {"molecule": "Cc1cc(F)ccc1N1CCN(C(=O)c2cccc(Cl)c2Cl)CC1=O", "note": "[Example 28, 4-[(2,3-dichlorophenyl)carbonyl]-1-(4-fluoro-2-methylphenyl)-2-piperazinone]", "pIC50 for human P2X7 receptor antagonist activity (blocking BzATP responses) in the FLIPR Ca Assay": "≥ 5.0"}, {"molecule": "Cc1c(N2CCOCC2)cccc1N1CCN(C(=O)c2cccc(Cl)c2Cl)CC1=O", "note": "[Example 80, 4-[(2,3-dichlorophenyl)carbonyl]-1-[2-methyl-3-(4-morpholinyl)phenyl]-2-piperazinone]", "pIC50 for human P2X7 receptor antagonist activity (blocking BzATP responses) in the FLIPR Ca Assay": "≥ 5.0"}]}]}
